# Data taken from paper PMC5799161.
# The chains behind the UniProt entries cited, without tags or fusion partners.
# UniProt P42224: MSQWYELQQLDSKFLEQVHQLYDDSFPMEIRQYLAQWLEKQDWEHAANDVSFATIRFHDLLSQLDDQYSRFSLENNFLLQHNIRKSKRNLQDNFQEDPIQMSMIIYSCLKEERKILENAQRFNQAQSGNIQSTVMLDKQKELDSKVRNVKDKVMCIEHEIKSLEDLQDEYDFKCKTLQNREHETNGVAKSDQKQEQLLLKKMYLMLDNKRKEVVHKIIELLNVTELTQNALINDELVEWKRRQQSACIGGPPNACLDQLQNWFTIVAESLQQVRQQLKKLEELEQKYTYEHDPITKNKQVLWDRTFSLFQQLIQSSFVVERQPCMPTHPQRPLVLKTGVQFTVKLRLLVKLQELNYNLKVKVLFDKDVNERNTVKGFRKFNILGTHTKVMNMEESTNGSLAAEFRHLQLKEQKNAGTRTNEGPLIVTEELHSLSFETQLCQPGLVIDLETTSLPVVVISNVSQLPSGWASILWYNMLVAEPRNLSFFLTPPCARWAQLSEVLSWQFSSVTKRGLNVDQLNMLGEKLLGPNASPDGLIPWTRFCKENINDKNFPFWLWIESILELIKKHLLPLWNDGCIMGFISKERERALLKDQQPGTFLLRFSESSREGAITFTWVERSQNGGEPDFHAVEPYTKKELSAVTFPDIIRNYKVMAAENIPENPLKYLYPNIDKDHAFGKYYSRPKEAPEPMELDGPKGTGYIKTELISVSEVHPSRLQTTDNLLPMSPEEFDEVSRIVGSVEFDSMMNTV
# UniProt P62993: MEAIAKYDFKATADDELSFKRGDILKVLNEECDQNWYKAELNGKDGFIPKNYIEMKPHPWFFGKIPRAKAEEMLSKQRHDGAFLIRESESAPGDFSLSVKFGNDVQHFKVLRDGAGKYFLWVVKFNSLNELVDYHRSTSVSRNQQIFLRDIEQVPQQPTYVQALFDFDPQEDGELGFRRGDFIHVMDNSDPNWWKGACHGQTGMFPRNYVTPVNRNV
# No constants are given. Whether binding was seen depends on the method and setting. Some results given as binding are weak or reduced against the parent protein; the word gives no strength.
# B1: FITC-GpYDKPHVL (peptide)
# peptide: GYDKPHVL
# modifications: phosphotyrosine (pY) at position 2 of the peptide; FITC on the N-terminus
# B2: FITC-PSpYVNVQN (peptide)
# peptide: PSYVNVQN
# modifications: phosphotyrosine (pY) at position 3 of the peptide; FITC on the N-terminus
# Columns and labels:
# [1] = target: biotinylated STAT1 (SH2-containing protein of the AlphaScreen) (UniProt P42224); assay: AlphaScreen or HTRF; biotinylated SH2-containing protein (75 nM STAT3, 30 nM STAT1 or 6 nM Grb2) on streptavidin-coated donor beads, FITC-pTyr peptide (0.05 nM for STAT3, 0.72 nM for STAT1, 0.18 nM for Grb2) on anti-FITC acceptor beads; 10 mM HEPES-NaOH pH 7.4, 50 mM NaCl, 1 mM EDTA, 0.1% NP-40 …; protein incubated with the test compound (MNS) for 15 min, then with the peptide for 90 min
# [2] = target: biotinylated Grb2 (SH2-containing protein of the AlphaScreen) (UniProt P62993); assay: as above
binder,measurement,setting,value
B1,binding,[1],binds
B2,binding,[2],binds
